Results deposited as PubChem BioAssay AID493246 (Drosophila RNAi Screening Center, 2011).

Purpose: 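Genes fly cells need to grow and stay alive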 (primary screen)
System: Drosophila Kc and S2R+ cells
Knock-down reagent: long dsRNA against Drosophila genes
Measurement: 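Cell number per well after knock-down, printed as raw plate values; calls were based on per-plate z-scores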
Scale: Kc cell number and S2R+ cell number: higher = more cells remaining
Rule for the call: 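Active when the per-plate z-score of cell number is 3 or more in the direction of fewer cells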
The deposit covers about 21,000 reagents; below is a random part of those that have a named target and a result. Over the whole deposit, 429 (2%) are marked active. 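Values are raw and not normalised between plates; calls rest on per-plate z-scores that were not deposited.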 Reagents against one gene are numbered here. The record does not give: the amount of reagent, the time to read-out.

CG42562 (GeneID 37008)
- Kc cell number, rep 1: 1.74e6
- Kc cell number, rep 2: 1.83e6
- S2R+ cell number, rep 1: 1.26e6
- S2R+ cell number, rep 2: 1.42e6
- activity call: inactive

pit (GeneID 42595)
- Kc cell number, rep 1: 1.37e6
- Kc cell number, rep 2: 1.34e6
- S2R+ cell number, rep 1: 9.65e5
- S2R+ cell number, rep 2: 1.02e6
- activity call: inactive

Pfdn1 (GeneID 33857)
- Kc cell number, rep 1: 1.56e6
- Kc cell number, rep 2: 1.48e6
- S2R+ cell number, rep 1: 1.26e6
- S2R+ cell number, rep 2: 1.40e6
- activity call: inactive

bic (GeneID 45827)
- Kc cell number, rep 1: 1.44e6
- Kc cell number, rep 2: 1.47e6
- S2R+ cell number, rep 1: 1.03e6
- S2R+ cell number, rep 2: 1.15e6
- activity call: inactive

s-cup (GeneID 36371) #1
- Kc cell number, rep 1: 1.48e6
- Kc cell number, rep 2: 1.52e6
- S2R+ cell number, rep 1: 1.19e6
- S2R+ cell number, rep 2: 1.39e6
- activity call: inactive

s-cup (GeneID 36371) #2
- Kc cell number, rep 1: 1.56e6
- Kc cell number, rep 2: 1.57e6
- S2R+ cell number, rep 1: 1.24e6
- S2R+ cell number, rep 2: 1.40e6
- activity call: inactive

Tnks (GeneID 43095)
- Kc cell number, rep 1: 1.59e6
- Kc cell number, rep 2: 1.67e6
- S2R+ cell number, rep 1: 1.01e6
- S2R+ cell number, rep 2: 1.09e6
- activity call: inactive

CG32246 (GeneID 317936)
- Kc cell number, rep 1: 1.64e6
- Kc cell number, rep 2: 1.67e6
- S2R+ cell number, rep 1: 1.08e6
- S2R+ cell number, rep 2: 1.29e6
- activity call: inactive

Lhr (GeneID 36957)
- Kc cell number, rep 1: 1.43e6
- Kc cell number, rep 2: 1.46e6
- S2R+ cell number, rep 1: 1.11e6
- S2R+ cell number, rep 2: 1.12e6
- activity call: inactive

Muc68E (GeneID 2768990)
- Kc cell number, rep 1: 1.39e6
- Kc cell number, rep 2: 1.43e6
- S2R+ cell number, rep 1: 1.09e6
- S2R+ cell number, rep 2: 1.19e6
- activity call: inactive

Reprinted from the entries so far for reference:
Tnks (GeneID 43095)
- Kc cell number, rep 1: 1.59e6
- Kc cell number, rep 2: 1.67e6
- S2R+ cell number, rep 1: 1.01e6
- S2R+ cell number, rep 2: 1.09e6
- activity call: inactive

CG32246 (GeneID 317936)
- Kc cell number, rep 1: 1.64e6
- Kc cell number, rep 2: 1.67e6
- S2R+ cell number, rep 1: 1.08e6
- S2R+ cell number, rep 2: 1.29e6
- activity call: inactive

More reagents follow:
ck (GeneID 34882)
- Kc cell number, rep 1: 1.33e6
- Kc cell number, rep 2: 1.36e6
- S2R+ cell number, rep 1: 1.23e6
- S2R+ cell number, rep 2: 1.21e6
- activity call: inactive

CG14982 (GeneID 38464)
- Kc cell number, rep 1: 1.08e6
- Kc cell number, rep 2: 1.33e6
- S2R+ cell number, rep 1: 4.71e5
- S2R+ cell number, rep 2: 5.77e5
- activity call: active

rost (GeneID 34222)
- Kc cell number, rep 1: 1.37e6
- Kc cell number, rep 2: 1.42e6
- S2R+ cell number, rep 1: 1.17e6
- S2R+ cell number, rep 2: 1.17e6
- activity call: inactive

CG5245 (GeneID 41530)
- Kc cell number, rep 1: 1.45e6
- Kc cell number, rep 2: 1.49e6
- S2R+ cell number, rep 1: 1.25e6
- S2R+ cell number, rep 2: 1.31e6
- activity call: inactive

CG1441 (GeneID 36029)
- Kc cell number, rep 1: 1.34e6
- Kc cell number, rep 2: 1.41e6
- S2R+ cell number, rep 1: 1.11e6
- S2R+ cell number, rep 2: 1.17e6
- activity call: inactive

CG32026 (GeneID 317829)
- Kc cell number, rep 1: 1.40e6
- Kc cell number, rep 2: 1.52e6
- S2R+ cell number, rep 1: 1.12e6
- S2R+ cell number, rep 2: 1.23e6
- activity call: inactive

CR11023 (GeneID 33155)
- Kc cell number, rep 1: 1.52e6
- Kc cell number, rep 2: 1.54e6
- S2R+ cell number, rep 1: 1.01e6
- S2R+ cell number, rep 2: 1.18e6
- activity call: inactive

CG5555 (GeneID 42302)
- Kc cell number, rep 1: 1.76e6
- Kc cell number, rep 2: 1.74e6
- S2R+ cell number, rep 1: 1.38e6
- S2R+ cell number, rep 2: 1.38e6
- activity call: inactive

CG32832 (GeneID 318237)
- Kc cell number, rep 1: 1.40e6
- Kc cell number, rep 2: 1.43e6
- S2R+ cell number, rep 1: 8.76e5
- S2R+ cell number, rep 2: 1.05e6
- activity call: inactive

CG14194 (GeneID 32908)
- Kc cell number, rep 1: 1.42e6
- Kc cell number, rep 2: 1.44e6
- S2R+ cell number, rep 1: 9.83e5
- S2R+ cell number, rep 2: 1.02e6
- activity call: inactive

Sf3b3 (GeneID 38093)
- Kc cell number, rep 1: 9.66e5
- Kc cell number, rep 2: 1.16e6
- S2R+ cell number, rep 1: 6.84e5
- S2R+ cell number, rep 2: 6.98e5
- activity call: inactive
